Test results taken from patent publication US7250401B2, “Therapeutic compositions” (Advanced Therapeutics and Diagnostics, LC, priority 2001, dated 2007).

Test: Reaction with thionitrobenzoate (detection of thiol-reactive substances, loss of absorbance at 412 nm)
Assay type: physicochemical
Details: 0.01 ml of 5 mM aqueous solution, anaerobic cuvette (argon), 25° C., within 6 hours; followed up to 24 hours
Description: A stock solution of 5-thio-2-nitrobenzoate (hereafter referred to as thionitrobenzoate) was prepared by reduction of 5,5′-dithiobis(2-nitrobenzoic acid) (hereafter referred to as DTNB, Aldrich Chemical Company). This stock solution was prepared by mixing 0.1 ml of 0.1 M DTNB dissolved in ethanol (396 mg of DTNB in 10 ml of ethanol), 0.1 ml of 1 M aqueous potassium phosphate buffer (prepared by mixing equal volumes of 1 M monobasic potassium phosphate with 1 M dibasic potassium phosphate), and 0.025 ml of 1 M sodium borohydride dissolved in 1 M NaOH on ice. After incubating this mixture for 10 minutes at ice temperature, 0.1 mL of 1 M monobasic potassium phosphate was added and the resultant solution was diluted to a final volume of 2 ml by addition of 1.675 ml of water. […]
If 0.01 ml of the 10 mM stock of thionitrobenzoate, obtained by sodium borohydride reduction of DTNB, was diluted with 0.89 ml of water and 0.1 ml of 1 M phosphate buffer, it gave an absorbance at 412 nm of 1.36 in a 1 cm pathlength cuvette. If 0.01 ml of the 8.7 mM stock of thionitrobenzoate obtained by 2-mercaptoethanol reduction of DTNB was diluted with 0.89 ml of water and 0.1 ml of 1 M phosphate buffer, it gave an absorbance at 412 nm of 1.18 in a 1 cm pathlength cuvette. […]

Row | Compound | loss in absorbance at 412 nm
1 | CCN(CC)C(=O)OSC [DECOSMe, S-Methyl-O-(N,N-Diethylcarbamoyl)Sulfenate] | 0.54
2 | CCN(CC)C(=O)[S+](C)[O-] (stereo not drawn) [DETC-MeSO, S-Methyl-N,N-Diethylthiolcarbamate Sulfoxide] | no changes in absorbance
